The values are deposited in ChEMBL (CHEMBL3988442, “University of Dundee, Small-Polar-MMV Screening Library” (2021)).

By UniProt entry, the sequences of proteins in these tests, tags left out.
UniProt P9WPC5, whole entry: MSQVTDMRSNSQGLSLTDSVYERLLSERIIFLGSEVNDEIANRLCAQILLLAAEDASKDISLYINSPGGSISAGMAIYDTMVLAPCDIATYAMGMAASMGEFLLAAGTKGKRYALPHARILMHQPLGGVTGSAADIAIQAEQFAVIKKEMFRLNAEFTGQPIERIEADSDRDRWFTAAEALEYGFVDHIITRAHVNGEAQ
UniProt P9WPC3, whole entry partner: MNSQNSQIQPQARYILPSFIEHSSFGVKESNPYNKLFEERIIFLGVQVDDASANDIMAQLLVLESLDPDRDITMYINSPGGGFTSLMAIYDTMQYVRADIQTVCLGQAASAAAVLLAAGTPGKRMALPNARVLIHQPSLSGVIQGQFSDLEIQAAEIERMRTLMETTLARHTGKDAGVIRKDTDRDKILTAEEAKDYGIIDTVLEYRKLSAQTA
UniProt I6X8D2, whole entry: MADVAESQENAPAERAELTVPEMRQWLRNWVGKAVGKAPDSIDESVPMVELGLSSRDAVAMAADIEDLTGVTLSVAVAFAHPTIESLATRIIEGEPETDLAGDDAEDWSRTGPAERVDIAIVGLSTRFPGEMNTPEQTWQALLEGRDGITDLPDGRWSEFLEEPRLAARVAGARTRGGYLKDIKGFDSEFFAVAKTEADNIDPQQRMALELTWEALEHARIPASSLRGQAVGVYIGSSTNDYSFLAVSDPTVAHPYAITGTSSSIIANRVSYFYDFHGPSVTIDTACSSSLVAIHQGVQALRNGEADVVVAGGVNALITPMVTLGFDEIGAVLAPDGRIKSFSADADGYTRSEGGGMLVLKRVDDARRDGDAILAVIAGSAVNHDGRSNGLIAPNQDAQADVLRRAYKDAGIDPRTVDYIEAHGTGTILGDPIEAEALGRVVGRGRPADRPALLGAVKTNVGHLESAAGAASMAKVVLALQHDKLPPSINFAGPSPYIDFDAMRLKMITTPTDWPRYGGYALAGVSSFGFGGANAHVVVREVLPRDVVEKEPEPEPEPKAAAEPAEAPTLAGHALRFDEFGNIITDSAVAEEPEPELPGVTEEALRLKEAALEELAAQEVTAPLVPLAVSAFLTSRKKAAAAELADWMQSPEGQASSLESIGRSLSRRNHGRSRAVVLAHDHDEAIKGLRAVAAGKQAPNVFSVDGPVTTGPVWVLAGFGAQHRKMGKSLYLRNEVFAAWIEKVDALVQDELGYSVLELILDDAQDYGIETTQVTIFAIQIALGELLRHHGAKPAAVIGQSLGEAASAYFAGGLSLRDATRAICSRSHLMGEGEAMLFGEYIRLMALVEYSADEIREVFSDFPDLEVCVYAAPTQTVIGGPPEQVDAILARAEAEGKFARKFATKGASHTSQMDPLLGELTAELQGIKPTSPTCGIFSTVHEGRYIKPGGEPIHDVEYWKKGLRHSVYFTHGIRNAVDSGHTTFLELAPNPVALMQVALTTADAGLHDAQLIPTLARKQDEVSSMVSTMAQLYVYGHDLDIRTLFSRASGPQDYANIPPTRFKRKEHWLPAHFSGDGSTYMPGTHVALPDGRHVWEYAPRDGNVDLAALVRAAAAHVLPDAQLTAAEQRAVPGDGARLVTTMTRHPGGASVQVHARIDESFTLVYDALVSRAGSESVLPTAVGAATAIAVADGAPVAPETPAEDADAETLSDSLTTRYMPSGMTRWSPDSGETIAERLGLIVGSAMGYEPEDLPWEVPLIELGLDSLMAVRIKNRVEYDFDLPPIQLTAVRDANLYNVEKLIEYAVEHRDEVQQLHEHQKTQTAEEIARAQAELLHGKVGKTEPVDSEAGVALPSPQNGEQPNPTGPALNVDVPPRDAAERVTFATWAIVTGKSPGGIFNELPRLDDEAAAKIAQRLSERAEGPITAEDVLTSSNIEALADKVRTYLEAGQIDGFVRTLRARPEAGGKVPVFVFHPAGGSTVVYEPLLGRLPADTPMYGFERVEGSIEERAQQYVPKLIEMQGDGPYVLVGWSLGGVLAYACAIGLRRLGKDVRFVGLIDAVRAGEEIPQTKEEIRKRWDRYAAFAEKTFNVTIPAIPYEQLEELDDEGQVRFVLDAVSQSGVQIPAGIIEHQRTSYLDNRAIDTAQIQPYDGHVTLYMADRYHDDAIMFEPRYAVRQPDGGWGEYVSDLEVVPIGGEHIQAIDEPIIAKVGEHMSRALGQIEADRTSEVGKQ

The filed quantity is “Percent Effect” (%).
How 0% and 100% were set is not recorded. Most values in the screen are low, and negative values occur.
This is an unselected part of the compounds tested.

ClpP1P2: 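Protease assay of ClpP1P2, read by the AMC dye that it sets free. Target: ClpP1P2, Mycobacterium tuberculosis (UniProt P9WPC5 and UniProt P9WPC3). Compounds at 50 µM. Direction is inferred from only a few compounds that gave an IC50; most scored high, so higher reads as stronger inhibition. Most other retested compounds had strongly negative values. About 69,000 compounds were tested under these conditions; 0.015% (about 10) showed 50% or more at least once.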
Pks13 thioesterase: 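Enzyme assay of the thioesterase domain of polyketide synthase 13; the read-out is not stated. Target: Polyketide synthase Pks13, Mycobacterium tuberculosis (UniProt I6X8D2). Tested at 30 µM. The record gives no direction; the compounds picked for IC50 retests had high values, so higher reads as stronger inhibition. Size under these conditions: about 67,000 compounds, about 300 of them at 50% or above in at least one test.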

For COc1ccccc1CNC(=O)COc1ccc2c(c1)OCC2O (stereo not given) the result was ClpP1P2: -4.015%; Pks13 thioesterase: -18.13%. Cc1nnc(SCc2ccccn2)s1 gave ClpP1P2: -7.182%; Pks13 thioesterase: 5.204%. With CC(=O)N1CCC(Cc2cnc(-c3c(C)n[nH]c3C)cn2)C1 (stereo not given) the screen gave ClpP1P2: 8.645%; Pks13 thioesterase: -17.56%. For COc1nc(C)c(C(=O)N2CCc3[nH]nc(Cc4ccccc4)c3C2)s1 the result was ClpP1P2: -2.641%; Pks13 thioesterase: -23.39%. Result for Cc1cc(Br)c(O)c(C(=O)N2CCC(CN3CCCCCC3)CC2)c1 was ClpP1P2: 14.42%; Pks13 thioesterase: -34.2%. Cc1nc(N(C)C)nc(-c2cccc(-c3ccn(CCCO)n3)c2)c1C gave ClpP1P2: -29.25%; Pks13 thioesterase: 20.96%.

Cc1cc(C(F)(F)F)nn1CCNC(=O)C(C)n1ccnc1C(C)C (stereo not given) gave ClpP1P2: 15.32%; Pks13 thioesterase: 1.031%. For COc1cc(CNCCn2cc(C)cn2)c2c(c1)CC(C)O2 (stereo not given) the result was ClpP1P2: -5.368%; Pks13 thioesterase: -12.35%. O=C(COc1ccccc1)NCC1CCN(Cc2ccsc2)CC1 gave ClpP1P2: -12.02%; Pks13 thioesterase: -0.1268%. CC(C)N(CC(N)=O)Cc1cccc(C(F)(F)F)c1 gave ClpP1P2: -1.777%; Pks13 thioesterase: -31.27%. For Cc1cnn(Cc2ccc(NC(=O)N[C@@H]3C=C[C@H](CO)C3)cc2)c1 the result was ClpP1P2: -3.506%. For Cc1noc(C(C)C)c1C(=O)NCC(c1ccccc1)N(C)C (stereo not given) the result was ClpP1P2: -11.71%; Pks13 thioesterase: -13.18%.

Result for Cc1cnc(N2CCC3(CCC(C(=O)NC(C)C)OC3)CC2)nc1 (stereo not given) was ClpP1P2: -1.285%; Pks13 thioesterase: -29.28%. Cn1ccnc1CN1CCCN(C(=O)c2ccc3ccccc3c2)CC1 read ClpP1P2: -28.29%; Pks13 thioesterase: -18.09%. COC(=O)c1ccoc1CN(C)CC(=O)NC1CCS(=O)(=O)C1 (stereo not given) read ClpP1P2: -2.44%; Pks13 thioesterase: -18.81%. COc1cccn(CC(=O)N(C)CCOc2cc(C)cc(C)c2)c1=O read ClpP1P2: -2.247%; Pks13 thioesterase: -2.078%. For CC(CNS(C)(=O)=O)c1ccc(F)c(F)c1 (stereo not given) the result was ClpP1P2: -1.475%; Pks13 thioesterase: 13.49%. Result for CN(C)Cc1ccc(N2CCN(CCOCC(F)(F)F)CC2)nc1 was ClpP1P2: -9.606%; Pks13 thioesterase: -30.39%.

For CCN(CC)Cc1cc(C(=O)N2CC(C)(C)[C@@](C)(O)C2)c(C)o1 the result was ClpP1P2: -10.58%; Pks13 thioesterase: 12.59%. With Cn1cncc1C(=O)N1CCOC2(COCCN(CC3CC3)C2)C1 (stereo not given) the screen gave ClpP1P2: 5.555%; Pks13 thioesterase: -3.594%. Cc1cccc(OC2CCN(C(=O)Cn3ccc4ccccc43)CC2)n1 gave ClpP1P2: -2.14%; Pks13 thioesterase: -12.85%. With Cc1cc(C)nc(Nc2cccc(C3CCCN(CC4CC4)C3)n2)n1 (stereo not given) the screen gave ClpP1P2: -1.869%; Pks13 thioesterase: 4.057%. For CCN1CCN(c2ccc(C(=O)NCCOC)cc2F)CC1 the result was ClpP1P2: 4.971%; Pks13 thioesterase: 3.368%. With c1cncc(COCC2CN(Cc3ccncc3)Cc3ccnn3C2)c1 (stereo not given) the screen gave ClpP1P2: -8.123%; Pks13 thioesterase: -21%.

CCn1c(C2CCCN(Cc3ccnc4ccccc34)C2)nn(C)c1=O (stereo not given) read ClpP1P2: -1.345%; Pks13 thioesterase: -29.34%. CN(C)c1ccc(C(=O)N2CCCC(n3cncn3)C2)nn1 (stereo not given) read ClpP1P2: -15.26%; Pks13 thioesterase: -4.752%. With Cc1ccc(CN2CCCC3(CCCCN3S(C)(=O)=O)C2)s1 (stereo not given) the screen gave ClpP1P2: 14.2%; Pks13 thioesterase: -4.195%. Result for CCS(=O)(=O)N1CCc2ccc(NC(=O)Nc3ccc(F)cc3F)cc21 was ClpP1P2: -6.12%; Pks13 thioesterase: -15.89%. O=C1CC[C@]2(CC[C@@H](NC3CCOC3)CC2)N1Cc1ccccc1 (stereo not given in full) read ClpP1P2: -10.45%. Result for CCOC(=O)c1nnc2ccccc2c1N1CCN(CC)CC1 was ClpP1P2: 1.929%; Pks13 thioesterase: -13.64%.

With CC1CCN(c2ncc(-c3ccccc3F)c(-c3nccn3C)n2)CC1 the screen gave ClpP1P2: -7.776%; Pks13 thioesterase: -14.24%. Result for O=c1n(Cc2ccc(C(F)(F)F)cc2)nc2ncccn12 was ClpP1P2: 14.88%; Pks13 thioesterase: -11.9%. Result for COc1ccc(C(=O)NCC(=O)N(Cc2ccsc2)C2CC2)cc1OC was ClpP1P2: 1.619%; Pks13 thioesterase: -8.276%. Result for CN1CCC(Nc2cc(Cl)ccc2OCC(F)(F)F)C1=O (stereo not given) was ClpP1P2: -2.103%; Pks13 thioesterase: -39.76%. For Cc1c[nH]c(CN(C)C(=O)[C@@]23CNC[C@@H]2CN(c2ncccn2)C3)n1 the result was ClpP1P2: -6.644%; Pks13 thioesterase: -35.73%. CS(=O)(=O)CCn1ccc(NC(=O)Cc2ccccc2Cl)n1 gave ClpP1P2: -6.021%; Pks13 thioesterase: -27.94%.

Cn1cc(-c2nc(CN3CCn4c(nnc4C4CC4)C3)cs2)cn1 gave ClpP1P2: -5.286%; Pks13 thioesterase: 9.089%. With CCOc1cc(C)ccc1NS(=O)(=O)c1cc(C)c(C(=O)O)s1 the screen gave ClpP1P2: 0.7072%; Pks13 thioesterase: -26.27%. Cn1ccc(C(=O)N2CCCC2c2ccc3c(c2)OCCO3)cc1=O (stereo not given) gave ClpP1P2: 0.2532%; Pks13 thioesterase: -4.635%. c1ccc(-c2nc(CNCCn3cccn3)cs2)cc1 read ClpP1P2: -24.79%; Pks13 thioesterase: 6.054%. For COCCN1CCc2cc(C(=O)NCC3CC3)c(NC(C)C)nc2CC1 the result was ClpP1P2: -153.8%; Pks13 thioesterase: 68.21%. Result for Cc1cccc(CNCC2(O)CCCN(CC3CCCCC3)C2=O)n1 (stereo not given) was ClpP1P2: -14.63%; Pks13 thioesterase: -62.71%.

CC(C)(C)OC(=O)NC(C)(C)c1noc(Cn2ccnc2)n1 gave ClpP1P2: 6.013%; Pks13 thioesterase: -23.46%. CCc1cnc(CN(C(C)=O)C2CCN(Cc3nccn3C)C2)o1 (stereo not given) read ClpP1P2: -13.16%; Pks13 thioesterase: -12.38%. Result for COc1cccc(CC2CCCN2CCCC#N)c1 (stereo not given) was ClpP1P2: -9.993%; Pks13 thioesterase: -18.12%.

For reference, 3 entries once more:

structure	ClpP1P2	Pks13 thioesterase
CC(C)N(CC(N)=O)Cc1cccc(C(F)(F)F)c1	-1.777%	-31.27%
COCCN1CCc2cc(C(=O)NCC3CC3)c(NC(C)C)nc2CC1	-153.8%	68.21%
COc1ccccc1CNC(=O)COc1ccc2c(c1)OCC2O (stereo not given)	-4.015%	-18.13%